Laboratory results taken from patent publication US11980937B1 (KING FAISAL UNIVERSITY, priority 2023, dated 2024).

Tests used:
Assay type in all cases: cell-based
MIAPaCa-2 (pancreas) = assay: In vitro cytotoxic activity MTT assay, MIAPaCa-2; settings: Homo sapiens, MIA PaCa-2; MIAPaCa-2 cells, exposed for 96 hours; read-out: IC50, 50% inhibition of cell proliferation, MIAPaCa-2 (pancreas)
Procedure: (§1) Compounds 1-16 were screened for their in vitro cytotoxic activity utilizing a 3-(4,5-dimethyl-thiazol-2-yl)-2,5-diphenyltetrazolium bromide (MTT) assay against selected cancer human cell lines consisting of PC3 (prostate), HCT116 (colon), A375 (melanoma), H1299 (lung), MIAPaCa-2 (pancreas), HL60 (leukemia), MCF7 (breast), MDA-MB-231 (breast) (T. Mosmann, J. Immunol. Meth., 1983, 65, 55-63). The cells were cultured at 37° C. in RMPI1640 medium supplemented with 10% fetal bovine serum, 50 IU/mL penicillin, and 50 μg/mL streptomycin in a 5% CO2 incubator. All cells were sub-cultured 3 times/week by trypsinisation. Viable cells were seeded and allowed to adhere for 12 hours before a test drug was added in 96-well plates at an initial density of 1.0×10^5 cells/mL. Tumor cell lines were separately exposed to various concentrations of the tested compounds followed by incubation at a temperature of 37° C. during 96 hours inside a medium of fresh RMPI 1640. Cells were subsequently incubated at 37° C. using MTT at 0.5 mg/mL during 4 hours. After removal of supernatant, formazan crystals were dissolved in isopropanol and the optical density was measured at 570 nm. CX-4945 was used as a positive control.

HL60 (leukemia) = assay: In vitro cytotoxic activity MTT assay, HL60; settings: Homo sapiens, HL-60; HL60 cells, exposed for 96 hours; read-out: IC50, 50% inhibition of cell proliferation, HL60 (leukemia)
Procedure: as §1

HCT116 (colon) = assay: In vitro cytotoxic activity MTT assay, HCT116; settings: Homo sapiens, HCT-116; HCT116 cells, exposed for 96 hours; read-out: IC50, 50% inhibition of cell proliferation, HCT116 (colon)
Procedure: as §1

MDA-MB-231 (breast) = assay: In vitro cytotoxic activity MTT assay, MDA-MB-231; settings: Homo sapiens; MDA-MB-231 cells, exposed for 96 hours; read-out: IC50, 50% inhibition of cell proliferation, MDA-MB-231 (breast)
Procedure: as §1

A375 (melanoma) = assay: In vitro cytotoxic activity MTT assay, A375; settings: Homo sapiens, A-375; A375 cells, exposed for 96 hours; read-out: IC50, 50% inhibition of cell proliferation, A375 (melanoma)
Procedure: as §1

H1299 (lung) = assay: In vitro cytotoxic activity MTT assay, H1299; settings: Homo sapiens, NCI-H1299; H1299 cells, exposed for 96 hours; read-out: IC50, 50% inhibition of cell proliferation, H1299 (lung)
Procedure: as §1

PC3 (prostate) = assay: In vitro cytotoxic activity MTT assay, PC3; settings: Homo sapiens, PC-3; PC3 cells, exposed for 96 hours; read-out: IC50, 50% inhibition of cell proliferation, PC3 (prostate)
Procedure: as §1

MCF7 (breast) = assay: In vitro cytotoxic activity MTT assay, MCF7; settings: Homo sapiens; MCF7 cells, exposed for 96 hours; read-out: IC50, 50% inhibition of cell proliferation, MCF7 (breast)
Procedure: as §1

## O=C(O)c1ccc2c(c1)nc(Nc1cccc(Cl)c1)c1ccncc12 [CX-4945]
MIAPaCa-2 (pancreas)
  IC50: 1000 nM
HL60 (leukemia)
  IC50: 3700 nM
HCT116 (colon)
  IC50: 2300 nM
MDA-MB-231 (breast)
  IC50: 6200 nM
A375 (melanoma)
  IC50: 4100 nM
H1299 (lung)
  IC50: 2300 nM
PC3 (prostate)
  IC50: 2000 nM
MCF7 (breast)
  IC50: 9100 nM
